Source: patent publication US20240383873A1, “PESTICIDALLY ACTIVE CYCLIC AMINE COMPOUNDS” (SYNGENTA CROP PROTECTION AG, priority 2021, published 2024)
Some results were stated once for a whole list of compounds, not compound by compound.

Tested on: Tetranychus Urticae (Two-Spotted Spider Mite)
Assay: Tetranychus urticae (two-spotted spider mite): feeding/contact activity
Type: in vivo
Details: application rate of 200 ppm; bean leaf discs sprayed; mixed population (mobile stages); 8 days after infestation
Experimental: Example B1: Tetranychus Urticae (Two-Spotted Spider Mite): Feeding/Contact Activity
Bean leaf discs on agar in 24-well microtiter plates were sprayed with aqueous test solutions prepared from 10'000 ppm DMSO stock solutions. After drying the leaf discs were infested with a mite population of mixed ages. The samples were assessed for mortality on mixed population (mobile stages) 8 days after infestation.

SMILES | mortality
CCN(C)S(=O)(=O)C1CCN(C(=O)c2cc(C#N)c(OCc3ccc4nonc4c3)nc2C(F)F)CC1 [Compound P1.159] | at least 80%
Cc1nc(OCc2ccc3c(c2)OC(F)(F)O3)c(C#N)cc1C(=O)N1CCC(N(C)S(C)(=O)=O)CC1 [Compound P1.18] | at least 80%
COCc1nc(OCc2ccc3c(c2)OC(F)(F)O3)c(C#N)cc1C(=O)N1CCN(C(=O)C2(C#N)CC2)CC1 [Compound P2.26] | at least 80%
CN(C)S(=O)(=O)C1CCN(C(=O)c2cc(C#N)c(OCc3cc(Cl)ccc3Cl)nc2C(F)F)CC1 [Compound P1.67] | at least 80%
CN(C)S(=O)(=O)C1CCN(C(=O)c2cc(C#N)c(OCc3ccc(Cl)cc3F)nc2C(F)F)CC1 [Compound P1.116] | at least 80%
CCS(=O)(=O)C1CCN(C(=O)c2cc(C#N)c(OCc3cc(C(F)(F)F)ccc3F)nc2C(F)(F)F)CC1 [Compound P1.64] | at least 80%
CCNC(=O)N1CCN(C(=O)c2cc(C#N)c(OCc3cc(C(F)(F)F)ccc3F)nc2C)CC1 [Compound P2.10] | at least 80%
CCS(=O)(=O)NC1CCN(C(=O)c2cc(C#N)c(OCc3cc(C(F)(F)F)ccc3F)nc2C(F)(F)F)CC1 [Compound P1.10] | at least 80%
CNS(=O)(=O)C1CCN(C(=O)c2cc(C#N)c(OCc3ccc4c(c3)OC(F)(F)O4)nc2C(F)F)CC1 [Compound P1.77] | at least 80%
CCN(C)S(=O)(=O)C1CCN(C(=O)c2cc(C#N)c(OCc3cc(C(F)(F)F)ccc3F)nc2C(F)(F)F)CC1 [Compound P1.52] | at least 80%
COCC(C)(C)N1CCN(C(=O)c2cc(C#N)c(OCc3cc(C(F)(F)F)ccc3F)nc2C(F)(F)F)CC1 [Compound P2.16] | at least 80%
N#Cc1cc(C(=O)N2CCN(C(=O)C3(C#N)CC3)CC2)c(C(F)(F)F)nc1OCc1cc(C(F)(F)F)ccc1F [Compound P2.8] | at least 80%
COCc1nc(OCc2ccc(Br)c(F)c2)c(C#N)cc1C(=O)N1CCC(S(=O)(=O)N(C)C)CC1 [Compound P1.136] | at least 80%
CCNS(=O)(=O)C1CCN(C(=O)c2cc(C#N)c(OCc3ccc4nonc4c3)nc2C(F)F)CC1 [Compound P1.153] | at least 80%
CNC(=O)C(C)(C)OC1CCN(C(=O)c2cc(C#N)c(OCc3ccc4c(c3)OC(F)(F)O4)nc2C(F)F)CC1 [Compound P1.97] | at least 80%
Cc1nc(OCc2ccc(Br)c(F)c2)c(C#N)cc1C(=O)N1CCN(CC(=O)N(C)C)CC1 [Compound P2.40] | at least 80%
CC(C(N)=O)N1CCN(C(=O)c2cc(C#N)c(OCc3ccc4c(c3)OC(F)(F)O4)nc2C(F)F)CC1 (stereo not shown) [Compound P2.51] | at least 80%
CCNS(=O)(=O)C1CCN(C(=O)c2cc(C#N)c(OCc3ccc(Cl)cc3F)nc2C(F)F)CC1 [Compound P1.157] | at least 80%
CN(C)C(=O)C(C)(C)N1CCN(C(=O)c2cc(C#N)c(OCc3cc(C(F)(F)F)ccc3F)nc2C(F)(F)F)CC1 [Compound P2.15] | at least 80%
CNC(=O)N1CCN(C(=O)c2cc(C#N)c(OCc3cc(C(F)(F)F)ccc3F)nc2C(F)(F)F)CC1 [Compound P2.2] | at least 80%
CNC(=O)CC1CCN(C(=O)c2cc(C#N)c(OCc3ccc4c(c3)OC(F)(F)O4)nc2C(F)F)CC1 [Compound P1.92] | at least 80%
CCN(C)S(=O)(=O)C1CCN(C(=O)c2cc(C#N)c(OCc3ccc(Br)c(F)c3)nc2C(F)F)CC1 [Compound P1.143] | at least 80%
N#Cc1cc(C(=O)N2CCC(CS(N)(=O)=O)CC2)c(C(F)(F)F)nc1OCc1cc(C(F)(F)F)ccc1F [Compound P1.47] | at least 80%
CN(C)S(=O)(=O)C1CCN(C(=O)c2cc(C#N)c(OCc3ccc4c(c3)OC(F)(F)O4)nc2C(F)F)CC1 [Compound P1.66] | at least 80%
COCc1nc(OCc2ccc3c(c2)OC(F)(F)O3)c(C#N)cc1C(=O)N1CCC(OCC(=O)N(C)C)CC1 [Compound P1.90] | at least 80%
